Taken from: PubChem BioAssay AID1259424 (University of Nebraska Medical Center, 2018)
Purpose: 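Find knockdowns that reproduce the expression shifts seen after KSR1 loss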 (primary screen). Cell system: human HCT116 colon cancer cells. Reagent: siRNA pool against human genes, 50 nM. Read-out: 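Log2 levels of six mRNAs (branched-DNA multiplex), adjusted by two reference genes and the non-targeting median, then scored against the average KSR1 knockdown pattern as Pearson r and euclidean distance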. Direction: mean correlation with KSR1 profile: higher = expression change more like KSR1 knockdown.
Shown is one part, drawn at random, of about 14,000 reagents. 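Higher correlation or smaller distance means closer resemblance to KSR1 loss; control wells, including KSR1 knockdowns, recur on many plates.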 Further read-outs or replicates are left out here. No sequences are given here. Not given: the time to read-out.

With knock-down of SLCO4A1 (GeneID 28231), the record shows mean correlation with KSR1 profile -0.00215.
OR5K1 (GeneID 26339) showed mean correlation with KSR1 profile -0.577.
Against GPS2 (GeneID 2874) the deposit lists mean correlation with KSR1 profile 0.526.
Silencing of KIF2C (GeneID 11004) gave: mean correlation with KSR1 profile 0.196.
With knock-down of FCRL5 (GeneID 83416), the screen gave mean correlation with KSR1 profile 0.0259.
OR2W1 (GeneID 26692) showed mean correlation with KSR1 profile 0.937.
Against DKK4 (GeneID 27121) the deposit lists mean correlation with KSR1 profile 0.192.
For CPQ (GeneID 10404), the values are mean correlation with KSR1 profile -0.424.
AMPD1 (GeneID 270) scored mean correlation with KSR1 profile -0.0297.
Silencing of KIAA1217 (GeneID 56243) gave: mean correlation with KSR1 profile -0.175.

Entries above whose target name starts with K or k (2):
KIF2C (GeneID 11004) | mean correlation with KSR1 profile: 0.196
KIAA1217 (GeneID 56243) | mean correlation with KSR1 profile: -0.175

More reagents:
UPF3A (GeneID 65110) scored mean correlation with KSR1 profile -0.11.
After knock-down of FCN2 (GeneID 2220), the record shows mean correlation with KSR1 profile 0.155.
With knock-down of SPP2 (GeneID 6694) the results were mean correlation with KSR1 profile 0.56.
CCL7 (GeneID 6354) scored mean correlation with KSR1 profile -0.258.
IFIT5 (GeneID 24138) scored mean correlation with KSR1 profile 0.348.
Silencing of WNK1 (GeneID 65125) resulted in: mean correlation with KSR1 profile 0.268.
ZNF500 (GeneID 26048) gave mean correlation with KSR1 profile -0.183.
For STC2 (GeneID 8614), the entry reads mean correlation with KSR1 profile 0.323.
Against LY6G6D (GeneID 58530) the deposit lists mean correlation with KSR1 profile -0.2.
